Where a chain is given by its changes, count along the chain named. Like-named read-outs stand apart in the source and are kept apart here. These are yes or no findings as the source states them, for the method shown. In cells and extracts the contact can be indirect. Some entries that bind do so weakly or less than the wild type. Where a sequence is shown, tags or fusion partners need not be part of it. Blank lines part the entries; values can stand above or below the molecule they belong to.
Legend:
Assay in all cases: co-IP; Flag agarose beads, 1–2 mg lysate, overnight at 4 °C; IP buffer 50 mM Tris-Cl pH 7.5, 150 mM NaCl, 1 mM EDTA, 1% Triton X-100; cells mock or arsenite treated; western blot of the precipitates
Flag–SRSF3-WT (human) [1] = molecular target: T1, Flag–SRSF3-WT (human) (UniProt P84103)
T1 sequence: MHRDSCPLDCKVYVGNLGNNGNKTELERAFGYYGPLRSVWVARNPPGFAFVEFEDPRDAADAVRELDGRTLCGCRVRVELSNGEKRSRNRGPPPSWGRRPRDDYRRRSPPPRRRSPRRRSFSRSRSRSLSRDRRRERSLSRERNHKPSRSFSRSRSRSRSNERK

By UniProt entry, the sequences of proteins in these tests, tags left out.
UniProt Q13283: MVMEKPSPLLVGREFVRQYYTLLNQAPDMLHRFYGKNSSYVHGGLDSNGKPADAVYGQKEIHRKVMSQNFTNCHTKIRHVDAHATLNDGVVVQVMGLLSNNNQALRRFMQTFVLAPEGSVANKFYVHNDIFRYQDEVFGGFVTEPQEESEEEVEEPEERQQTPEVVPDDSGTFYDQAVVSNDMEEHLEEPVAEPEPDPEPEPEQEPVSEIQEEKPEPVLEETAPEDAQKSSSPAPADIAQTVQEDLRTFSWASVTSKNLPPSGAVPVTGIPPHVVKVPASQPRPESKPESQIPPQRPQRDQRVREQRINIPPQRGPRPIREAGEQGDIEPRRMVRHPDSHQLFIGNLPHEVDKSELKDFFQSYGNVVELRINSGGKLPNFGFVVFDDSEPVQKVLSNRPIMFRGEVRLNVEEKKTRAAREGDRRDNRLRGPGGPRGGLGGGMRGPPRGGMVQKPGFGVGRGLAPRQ
UniProt P11940: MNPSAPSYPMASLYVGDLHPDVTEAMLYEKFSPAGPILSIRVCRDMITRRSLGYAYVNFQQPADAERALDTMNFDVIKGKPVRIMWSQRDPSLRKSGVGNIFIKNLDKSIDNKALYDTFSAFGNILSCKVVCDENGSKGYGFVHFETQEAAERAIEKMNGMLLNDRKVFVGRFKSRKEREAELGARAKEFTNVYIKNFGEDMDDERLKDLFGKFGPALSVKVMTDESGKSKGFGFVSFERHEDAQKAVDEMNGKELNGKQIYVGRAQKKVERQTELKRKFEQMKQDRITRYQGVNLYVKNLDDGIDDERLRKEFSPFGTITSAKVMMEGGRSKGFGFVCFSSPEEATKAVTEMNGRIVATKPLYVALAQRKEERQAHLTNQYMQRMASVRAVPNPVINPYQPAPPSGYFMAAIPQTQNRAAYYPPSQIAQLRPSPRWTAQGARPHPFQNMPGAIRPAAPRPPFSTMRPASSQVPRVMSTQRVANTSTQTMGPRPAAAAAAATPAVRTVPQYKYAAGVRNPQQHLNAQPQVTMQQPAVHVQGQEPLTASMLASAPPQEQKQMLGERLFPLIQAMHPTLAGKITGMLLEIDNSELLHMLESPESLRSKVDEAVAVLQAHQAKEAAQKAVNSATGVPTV
UniProt P06730: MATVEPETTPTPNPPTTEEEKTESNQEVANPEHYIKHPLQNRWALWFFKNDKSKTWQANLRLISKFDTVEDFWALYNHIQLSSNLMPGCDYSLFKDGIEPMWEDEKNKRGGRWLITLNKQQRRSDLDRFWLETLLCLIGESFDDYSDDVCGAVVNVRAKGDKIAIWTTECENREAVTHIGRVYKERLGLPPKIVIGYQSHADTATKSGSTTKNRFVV
UniProt P61081: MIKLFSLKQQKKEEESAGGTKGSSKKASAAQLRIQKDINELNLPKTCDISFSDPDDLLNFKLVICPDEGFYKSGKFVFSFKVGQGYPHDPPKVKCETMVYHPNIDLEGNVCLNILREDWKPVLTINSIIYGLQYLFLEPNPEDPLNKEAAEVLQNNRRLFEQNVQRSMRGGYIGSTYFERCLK

Flag–SRSF3–K85R (human) = molecular target: T2, Flag–SRSF3–K85R (human) (UniProt P84103)
T2 sequence: T1 sequence with K85R

Flag–SRSF3-WT (human) [2] = molecular target: T1, Flag–SRSF3-WT (human); remark: listed apart in the source

binding (Flag–SRSF3-WT (human) [1]): binds
binding (Flag–SRSF3–K85R (human)): binds
Molecule: G3BP1 (from UniProt Q13283 1-466)

binding (Flag–SRSF3-WT (human) [1]): binds
binding (Flag–SRSF3–K85R (human)): binds
Molecule: polyadenylate-binding protein 1 (PABP1) (from UniProt P11940 1-636)

binding (Flag–SRSF3-WT (human) [2]): binds
B1: TIA-1 (protein, UniProt P31483 1-386)
chain: MEDEMPKTLYVGNLSRDVTEALILQLFSQIGPCKNCKMIMDTAGNDPYCFVEFHEHRHAAAALAAMNGRKIMGKEVKVNWATTPSSQKKDTSSSTVVSTQRSQDHFHVFVGDLSPEITTEDIKAAFAPFGRISDARVVKDMATGKSKGYGFVSFFNKWDAENAIQQMGGQWLGGRQIRTNWATRKPPAPKSTYESNTKQLSYDEVVNQSSPSNCTVYCGGVTSGLTEQLMRQTFSPFGQIMEIRVFPDKGYSFVRFNSHESAAHAIVSVNGTTIEGHVVKCYWGKETLDMINPVQQQNQIGYPQPYGQWGQWYGNAQQIGQYMPNGWQVPAYGMYGQAWNQQGFNQTQSSAPWMGPNYGVQPPQGQNGSMLPNQPSGYRVAGYETQ

Further lines, the molecule ahead of its results:

Molecule: eIF4E (from UniProt P06730 1-217)
binding (Flag–SRSF3-WT (human) [1]): binds
binding (Flag–SRSF3–K85R (human)): binds

Molecule: UBE2M (from UniProt P61081 1-183) (enzyme)
binding (Flag–SRSF3-WT (human) [1]): binds
